The values below come from paper doi:10.1101/2022.07.12.499660.

Holding throughout (experiment): co-IP
Test [1] concerns the target T1, Spn-E-mKate2 (Spindle-E with mKate2, endogenous knock-in, spn-E^mKate2.KI) (Drosophila (endogenous in ovaries)) (UniProt Q9VF26).
T1 sequence: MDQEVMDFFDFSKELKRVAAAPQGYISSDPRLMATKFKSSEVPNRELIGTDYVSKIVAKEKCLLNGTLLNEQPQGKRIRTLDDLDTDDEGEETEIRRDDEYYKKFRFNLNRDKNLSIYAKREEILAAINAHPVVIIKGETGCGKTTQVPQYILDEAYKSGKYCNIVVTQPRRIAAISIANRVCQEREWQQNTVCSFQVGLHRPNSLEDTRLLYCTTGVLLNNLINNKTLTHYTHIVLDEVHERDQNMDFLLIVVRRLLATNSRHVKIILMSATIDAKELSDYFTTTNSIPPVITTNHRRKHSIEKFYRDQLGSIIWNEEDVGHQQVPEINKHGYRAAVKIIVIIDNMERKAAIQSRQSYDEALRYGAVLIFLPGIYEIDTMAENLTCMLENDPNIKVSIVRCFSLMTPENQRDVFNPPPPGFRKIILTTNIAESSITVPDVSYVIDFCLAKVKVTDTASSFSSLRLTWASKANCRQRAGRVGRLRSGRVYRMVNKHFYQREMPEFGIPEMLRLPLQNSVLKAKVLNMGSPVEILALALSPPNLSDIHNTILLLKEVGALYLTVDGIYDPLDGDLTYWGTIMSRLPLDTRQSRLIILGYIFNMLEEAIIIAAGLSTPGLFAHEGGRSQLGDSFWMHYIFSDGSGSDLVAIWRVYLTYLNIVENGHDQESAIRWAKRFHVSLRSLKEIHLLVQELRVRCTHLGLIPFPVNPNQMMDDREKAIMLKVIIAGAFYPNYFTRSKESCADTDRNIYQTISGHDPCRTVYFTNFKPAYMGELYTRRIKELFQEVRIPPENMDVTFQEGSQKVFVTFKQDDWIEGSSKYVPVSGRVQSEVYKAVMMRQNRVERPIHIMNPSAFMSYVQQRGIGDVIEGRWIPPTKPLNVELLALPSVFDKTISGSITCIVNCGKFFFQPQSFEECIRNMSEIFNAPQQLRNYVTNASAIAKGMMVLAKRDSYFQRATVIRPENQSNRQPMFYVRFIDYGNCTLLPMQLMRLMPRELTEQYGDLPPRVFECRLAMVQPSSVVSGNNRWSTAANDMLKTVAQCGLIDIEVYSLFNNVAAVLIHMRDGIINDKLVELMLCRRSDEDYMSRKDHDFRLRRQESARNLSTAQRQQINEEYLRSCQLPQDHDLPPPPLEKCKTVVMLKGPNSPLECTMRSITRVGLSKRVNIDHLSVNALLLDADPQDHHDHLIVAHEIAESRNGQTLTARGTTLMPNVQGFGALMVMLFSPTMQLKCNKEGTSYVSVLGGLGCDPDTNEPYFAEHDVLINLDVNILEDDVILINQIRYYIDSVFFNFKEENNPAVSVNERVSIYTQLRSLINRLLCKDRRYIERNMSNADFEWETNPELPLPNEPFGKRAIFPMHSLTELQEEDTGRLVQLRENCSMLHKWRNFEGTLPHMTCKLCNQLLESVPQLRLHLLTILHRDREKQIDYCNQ

Test [2] addresses T2, GFP-Vas (Vasa with EGFP, endogenous knock-in, vas^EGFP.KI) (Drosophila (endogenous in ovaries)), P09052.
T2 chain: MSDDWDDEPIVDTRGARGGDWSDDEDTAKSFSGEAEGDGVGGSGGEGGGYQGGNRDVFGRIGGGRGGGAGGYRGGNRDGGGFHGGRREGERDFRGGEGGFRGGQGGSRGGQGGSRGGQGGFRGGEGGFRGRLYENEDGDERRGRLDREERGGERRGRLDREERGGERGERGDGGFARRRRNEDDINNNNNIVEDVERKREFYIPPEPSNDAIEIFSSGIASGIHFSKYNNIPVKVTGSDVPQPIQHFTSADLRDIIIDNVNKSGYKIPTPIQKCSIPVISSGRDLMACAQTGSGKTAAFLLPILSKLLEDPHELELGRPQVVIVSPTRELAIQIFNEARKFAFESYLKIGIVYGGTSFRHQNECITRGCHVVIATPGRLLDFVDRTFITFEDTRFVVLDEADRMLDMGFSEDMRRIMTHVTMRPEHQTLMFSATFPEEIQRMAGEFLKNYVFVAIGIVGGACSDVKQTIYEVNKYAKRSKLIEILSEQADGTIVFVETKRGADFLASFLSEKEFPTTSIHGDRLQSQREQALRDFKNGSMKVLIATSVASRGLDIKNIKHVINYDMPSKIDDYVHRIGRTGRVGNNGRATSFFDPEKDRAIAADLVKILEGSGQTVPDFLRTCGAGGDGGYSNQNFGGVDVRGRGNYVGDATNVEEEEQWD
Conditions: remark: other sources report otherwise.

For test [3], the target named is T3, GFP-Vas (Vasa with EGFP, endogenous knock-in, vas^EGFP.KI) (Drosophila (endogenous in ovaries)) (UniProt P09052).
T3 sequence: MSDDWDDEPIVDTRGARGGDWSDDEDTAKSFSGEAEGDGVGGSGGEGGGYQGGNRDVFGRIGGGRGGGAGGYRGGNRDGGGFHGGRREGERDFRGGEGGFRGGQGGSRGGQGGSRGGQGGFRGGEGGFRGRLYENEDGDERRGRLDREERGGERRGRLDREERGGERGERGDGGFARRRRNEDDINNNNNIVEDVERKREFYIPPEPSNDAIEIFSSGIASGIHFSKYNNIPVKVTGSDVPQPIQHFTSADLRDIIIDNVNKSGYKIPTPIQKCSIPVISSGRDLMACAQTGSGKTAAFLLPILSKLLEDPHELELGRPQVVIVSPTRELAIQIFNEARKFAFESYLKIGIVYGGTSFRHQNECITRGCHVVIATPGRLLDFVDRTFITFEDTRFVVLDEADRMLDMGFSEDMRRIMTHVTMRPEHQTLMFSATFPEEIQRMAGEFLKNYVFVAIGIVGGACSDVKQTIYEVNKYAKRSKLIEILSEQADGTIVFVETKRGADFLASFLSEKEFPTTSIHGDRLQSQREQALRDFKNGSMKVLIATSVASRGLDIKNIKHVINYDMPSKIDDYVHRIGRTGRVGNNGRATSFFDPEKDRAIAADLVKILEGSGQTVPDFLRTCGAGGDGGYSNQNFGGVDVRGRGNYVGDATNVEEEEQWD

Results are given in words; binding and its absence hold for the method and conditions named. In cells and extracts the contact can be indirect. Some results given as binding are weak or reduced against the parent protein; the word gives no strength. For some assays here: Sequences can lack the tags named with a protein.

B1: Ago3, endogenous (protein, UniProt Q7PLK0 1-867)
chain: MSGRGNLLSLFNKNAGNMGKSISSKDHEIDSGLDFNNSESSGERLLSSHNIETDLITTLQHVNISVGRGRARLIDTLKTDDHTSNQFITSESKENITKKTKGPESEAIASENGLFFPDLIYGSKGSSVNIYCNYLKLTTDESKGVFNYEVRFFPPIDSVHLRIKYLNDHKDKLGGTKTFDGNTLYLPILLPNKMTVFISKAEDVELQIRILYKKKEEMRNCTQLYNILFDRVMKVLNYVKFDRKQFDPSRPKIIPLAKLEVWPGYVTAVDEYKGGLMLCCDVSHRILCQKTVLEMLVDLYQQNVEHYQESARKMLVGNIVLTRYNNRTYKINDICFDQNPTCQFEIKTGCTSYVEYYKQYHNINIKDVNQPLIYSIKKSRGIPAERENLQFCLIPELCYLTGLRDEVRSDNKLMREIATFTRVSPNQRQMALNKFYENVSNTPAAQEILNSWGLSLTNNSNKISGRQMDIEQIYFSKISVSAGRSAEFSKHAVTNEMLKVVHLSKWIIIHLRNYRQAATSLLDNMKQACESLGMNISNPTMISLDHDRIDAYIQALRRNITMNTQMVVCICHNRRDDRYAAIKKICCSEIPIPSQVINAKTLQNDLKIRSVVQKIVLQMNCKLGGSLWTVKIPFKNVMICGIDSYHDPSNRGNSVAAFVASINSSYSQWYSKAVVQTKREEIVNGLSASFEIALKMYRKRNGKLPTNIIIYRDGIGDGQLYTCLNYEIPQFEMVCGNRIKISYIVVQKRINTRIFSGSGIHLENPLPGTVVDQHITKSNMYDFFLVSQLVRQGTVTPTHYVVLRDDCNYGPDIIQKLSYKLCFLYYNWAGTVRIPACCMYAHKLAYLIGQSIQRDVAEALSEKLFYL
For the molecule B1, the binding entry in test [1] is recorded as “binds”.

B2: Ago3, endogenous, Q7PLK0 1-867 (protein)
chain: MSGRGNLLSLFNKNAGNMGKSISSKDHEIDSGLDFNNSESSGERLLSSHNIETDLITTLQHVNISVGRGRARLIDTLKTDDHTSNQFITSESKENITKKTKGPESEAIASENGLFFPDLIYGSKGSSVNIYCNYLKLTTDESKGVFNYEVRFFPPIDSVHLRIKYLNDHKDKLGGTKTFDGNTLYLPILLPNKMTVFISKAEDVELQIRILYKKKEEMRNCTQLYNILFDRVMKVLNYVKFDRKQFDPSRPKIIPLAKLEVWPGYVTAVDEYKGGLMLCCDVSHRILCQKTVLEMLVDLYQQNVEHYQESARKMLVGNIVLTRYNNRTYKINDICFDQNPTCQFEIKTGCTSYVEYYKQYHNINIKDVNQPLIYSIKKSRGIPAERENLQFCLIPELCYLTGLRDEVRSDNKLMREIATFTRVSPNQRQMALNKFYENVSNTPAAQEILNSWGLSLTNNSNKISGRQMDIEQIYFSKISVSAGRSAEFSKHAVTNEMLKVVHLSKWIIIHLRNYRQAATSLLDNMKQACESLGMNISNPTMISLDHDRIDAYIQALRRNITMNTQMVVCICHNRRDDRYAAIKKICCSEIPIPSQVINAKTLQNDLKIRSVVQKIVLQMNCKLGGSLWTVKIPFKNVMICGIDSYHDPSNRGNSVAAFVASINSSYSQWYSKAVVQTKREEIVNGLSASFEIALKMYRKRNGKLPTNIIIYRDGIGDGQLYTCLNYEIPQFEMVCGNRIKISYIVVQKRINTRIFSGSGIHLENPLPGTVVDQHITKSNMYDFFLVSQLVRQGTVTPTHYVVLRDDCNYGPDIIQKLSYKLCFLYYNWAGTVRIPACCMYAHKLAYLIGQSIQRDVAEALSEKLFYL
Consider B2, for which, in test [2], the binding entry is on record as “binds”.

B3: Aub, endogenous, O76922 1-866 (protein)
chain: MNLPPNPVIARGRGRGRKPNNVEANRGFAPSLGQKSDPSHSEGNQASGGNGGGGDAQVGPSIEKSSLSAVQMHKSEGDPRGSVRGRRLITDLVYSRPPGMTSKKGVVGTHITVQANYFKVLKRPNWTIYQYRVDFTPDVEATRLRRSFLYEHKGILGGYIFDGTNMFCINQFKAVQDSPYVLELVTKSRAGENIEIKIKAVGSVQSTDAEQFQVLNLILRRAMEGLDLKLVSRYYYDPQAKINLENFRMQLWPGYQTSIRQHENDILLCSEICHKVMRTETLYNILSDAIRDSDDYQSTFKRAVMGMVILTDYNNKTYRIDDVDFQSTPLCKFKTNDGEISYVDYYKKRYNIIIRDLKQPLVMSRPTDKNIRGGNDQAIMIIPELARATGMTDAMRADFRTLRAMSEHTRLNPDRRIERLRMFNKRLKSCKQSVETLKSWNIELDSALVEIPARVLPPEKILFGNQKIFVCDARADWTNEFRTCSMFKNVHINRWYVITPSRNLRETQEFVQMCIRTASSMKMNICNPIYEEIPDDRNGTYSQAIDNAAANDPQIVMVVMRSPNEEKYSCIKKRTCVDRPVPSQVVTLKVIAPRQQKPTGLMSIATKVVIQMNAKLMGAPWQVVIPLHGLMTVGFDVCHSPKNKNKSYGAFVATMDQKESFRYFSTVNEHIKGQELSEQMSVNMACALRSYQEQHRSLPERILFFRDGVGDGQLYQVVNSEVNTLKDRLDEIYKSAGKQEGCRMTFIIVSKRINSRYFTGHRNPVPGTVVDDVITLPERYDFFLVSQAVRIGTVSPTSYNVISDNMGLNADKLQMLSYKMTHMYYNYSGTIRVPAVCHYAHKLAFLVAESINRAPSAGLQNQLYFL
Turning to B3, the binding entry in test [2] is recorded as “binds”.

B4: Piwi, endogenous (protein, UniProt Q9VKM1 1-843)
chain: MADDQGRGRRRPLNEDDSSTSRGSGDGPRVKVFRGSSSGDPRADPRIEASRERRALEEAPRREGGPTERKPWGDQYDYLNTRPAELVSKKGTDGVPVMLQTNFFRLKTKPEWRIVHYHVEFEPSIENPRVRMGVLSNHANLLGSGYLFDGLQLFTTRKFEQEITVLSGKSKLDIEYKISIKFVGFISCAEPRFLQVLNLILRRSMKGLNLELVGRNLFDPRAKIEIREFKMELWPGYETSIRQHEKDILLGTEITHKVMRTETIYDIMRRCSHNPARHQDEVRVNVLDLIVLTDYNNRTYRINDVDFGQTPKSTFSCKGRDISFVEYYLTKYNIRIRDHNQPLLISKNRDKALKTNASELVVLIPELCRVTGLNAEMRSNFQLMRAMSSYTRMNPKQRTDRLRAFNHRLQNTPESVKVLRDWNMELDKNVTEVQGRIIGQQNIVFHNGKVPAGENADWQRHFRDQRMLTTPSDGLDRWAVIAPQRNSHELRTLLDSLYRAASGMGLRIRSPQEFIIYDDRTGTYVRAMDDCVRSDPKLILCLVPNDNAERYSSIKKRGYVDRAVPTQVVTLKTTKNRSLMSIATKIAIQLNCKLGYTPWMIELPLSGLMTIGFDIAKSTRDRKRAYGALIASMDLQQNSTYFSTVTECSAFDVLANTLWPMIAKALRQYQHEHRKLPSRIVFYRDGVSSGSLKQLFEFEVKDIIEKLKTEYARVQLSPPQLAYIVVTRSMNTRFFLNGQNPPPGTIVDDVITLPERYDFYLVSQQVRQGTVSPTSYNVLYSSMGLSPEKMQKLTYKMCHLYYNWSGTTRVPAVCQYAKKLATLVGTNLHSIPQNALEKKFYYL
In the case of B4, the binding result in test [3] and in test [1] was “binds” each time.
